From US20260201069A1, “ANTIBODIES THAT SPECIFICALLY BIND MODIFIED OLIGONUCLEOTIDES” (Hoffmann-La Roche Inc., priority 2024, published 2026)

What was measured:
ASO 297 = experiment: SPR (BIAcore) binding kinetics and affinity; settings: analyte ASO 297; bivalent IgG format
Experimental: (§1) In more detail, LNA binding of the antibodies according to the current invention was characterized by surface plasmon resonance (SPR) using a BIAcore instrument with a HEPES-based running and dilution buffer at 25° C. About 100-200 resonance units (RU) of an anti-LNA antibody with an Fc-region of the human IgG1 subclass and the mutations P329G, L234A and L235A (according to Kabat EU index; human IgG Fc-PGLALA) or an anti-LNA Fab fragment with human CL and CH1 (kappa, IgG1 isotype), respectively, was captured on the surface of a Series S Sensor Chip CM3 derivatized by standard amine coupling with either a mouse anti-human IgG Fc-PGLALA antibody or a goat anti-human F(ab′2) antibody with final total surface densities of approximately 5000 RU. Different LNA-modified ASOs were passed over the derivatized SPR chip surface by injecting the respective solutions in a 1:3 dilution series up to a final concentration of 1000 nM. Association was monitored for 3 min and dissociation for 5 min at a flow rate of 30 μl/min each. Bulk refractive index differences were corrected by subtracting blank injections and by subtracting the response obtained from the reference flow cell without captured antibody. Curve fitting was performed using the 1:1 Langmuir binding model within the BIAcore evaluation software.
(§2) To assess the binding specificities and affinities of the LNA-binding antibodies according to the current invention, surface plasmon resonance was used as described, e.g., in WO 2020/141117 and WO 2022/175217.
(§3) To assess the specificities and affinities of LNA-binding antibodies, surface plasmon resonance was done as described in WO 2020/141117 and WO 2022/175217. ASO binding was investigated by surface plasmon resonance (SPR) using a BIAcore T200 instrument (Cytiva). As a running and dilution buffer, HEPES buffered saline (HBS) containing 0.05% PS20 was used, the temperature was set to 25° C. For capturing anti-LNA Fabs or complete anti-LNA antibodies to a Series S Sensor Chip CM3 (Cytiva), either a mouse anti-human IgG antibody (Roche Diagnostics GmbH) or a goat anti-human F(ab′2) antibody (Jackson ImmunoResearch) was immobilized using standard amine coupling chemistry with final total surface densities of approximately 5000 resonance units (RU). The anti-LNA antibodies were captured to the surface by an injection for 30 sec., leading to response levels of approx. 100-200 RU. Different ASO molecules were injected in a 1:3 dilution series up to 1000 nM. Association was monitored for 3 min. and dissociation for 5 min. at a flow rate of 30 μl/min each. Subsequently, the surface was regenerated by injecting 10 mM NaOH (anti-human IgG antibody surface) or 10 mM Glycine pH 1.7 (anti-human IgG F(ab′2) antibody surface) for 60 sec. […]

ASO 420 = experiment: SPR (BIAcore) binding kinetics and affinity; settings: analyte ASO 420; bivalent IgG format
Experimental: as §1, §2, §3

B1: mAb 5392: anti-LNA antibody produced by clone 1.7.15 in the bivalent standard Y-shaped IgG format (antibody, V domains shown)
VH: QVQLKQSGPSFVQPSQSLSITCTVSGFSLTTYGVHWVRQSPGKGLEWLGVIWRSGGTDYNAAFMSRLSITKDNSKSQVFFKMNSLQTDDTAIYYCTNLYYWGQGTTLTVSS
VL: DIVMTQATFSNPVTLGTSVSISCRSSKSLLRSNGITYLYWYLQKPGQSPQLLIYQMSNLASGVPDRFSSSGSGTDFTLRISRVEAEDVGVYYCGQNLELPYTFGSGTKVEIK
B1 was tested. Which molar ratio (ASO 297) did it give?
The molar ratio was 0.4.

What about the molar ratio (ASO 420) of the same molecule?
The molar ratio was 0.2.

B2: mAb 5393: anti-LNA antibody produced by clone 1.9.21 in the bivalent standard Y-shaped IgG format (antibody, V domains shown)
VH: QVQLQQSGAELVRPGTSVKVSCKASGYAFTNYLIEWIKQRPGQGLEWIGVINPGSGGTNYNEKFRVKATLTADKSSSTAYMQLSSLTSDDSAVYFCARGGGYYWGQGTLVTVSA
VL: DIVMTQAAPSVPVTPGESVSISCRSSKSLLHSNGNTYLFWFLQRPGQSPQVLIYRMSNLASGVPDRFSGSGSGTAFTLRISRVEAEDVGVYYCMQHLEYPYTFGSGTRLEIK
With B2 as the molecule, how does the molar ratio (ASO 297) read?
Its molar ratio is 0.4.

And the molar ratio (ASO 420)?
Its molar ratio is 1.1.
